Source: PMC4628070, “Independent Mechanisms Target SMCHD1 to Trimethylated Histone H3 Lysine 9-Modified Chromatin and the Inactive X Chromosome” (Molecular and Cellular Biology, 2015)
These are yes or no findings as the source states them, for the method shown. For some of these results: In cells and extracts the contact can be indirect. Some results given as binding are weak or reduced against the parent protein; the word gives no strength. One block for each molecule: values may come before it.

Experiments:
[1] = target: SMCHD1 E147A (FLAG- or HA-tagged, HEK293T) (mouse) (UniProt Q6P5D8); assay: co-IP; HEK293T cotransfected with C-terminally HA- and FLAG-tagged SMCHD1 or its derivatives; IP from nuclear extract (150 mM NaCl, 50 mM Tris pH 7.5, 0.05% NP-40, protein A magnetic beads, 4 h, 4°C), Western blot
[2] = target: SMCHD1 ΔHinge (FLAG- or HA-tagged, HEK293T) (mouse) (UniProt Q6P5D8); assay: as above
[3] = target: SMCHD1-FLAG (transfected into HEK293T cells) (mouse) (UniProt Q6P5D8); assay: as above
[4] = target: SMCHD1 hinge domain AAA mutant (residues 1616 to 1963, G1872A, G1875A, G1876A) (mouse) (UniProt Q6P5D8); assay: SEC; affinity-purified wild-type and mutant hinge domains on a Superdex 75 10/300 column, 0.5-ml fractions, A280 and Coomassie-stained SDS-PAGE; both purified

Molecule: SMCHD1-FLAG (transfected into HEK293T cells) (from UniProt Q6P5D8 1-2007)
- binding [3]: binds

B1: SMCHD1 hinge domain AAA mutant (residues 1616 to 1963, G1872A, G1875A, G1876A) (domain or fragment, UniProt Q6P5D8 1616-1963)
chain: NDVKKQQQMAALTKEKDELSKSITMYRSLFDANKQLVDEMKCQAEEAKLKETQLRNELKAYNIDIPATQQTTHIEALLEKKITEQNELKKRPRRLCTLPNYTKRSGDILGKIAHLAQIEDDRAAMVISWHLASDMDCVVTLTTDAARAIYDETQGRQQVLPLDSIYRKTLPDWKRPLPHFRNGKLHFKPFGNPVFARDLLTFPDNIEHCETVFGMLLGDTIILDNLDAANHYRKEVVKITHCPTLLTRDGDRIRSNAKFAALQNKAPPMDKLRGMVFGAPVPKQCVVLGKQIDLIQQYRTALYRLSSVNEDLDNQLQYLHTPDMKKKKQELDEQEKSLKRIEQKLGMT
- binding [4]: no binding

More lines, now with the values ahead:

- binding [1]: binds
Molecule: SMCHD1 E147A (FLAG- or HA-tagged, HEK293T) (from UniProt Q6P5D8 1-2007)

- binding [2]: no binding
Molecule: SMCHD1 ΔHinge (FLAG- or HA-tagged, HEK293T) (from UniProt Q6P5D8 1-2007)
